# In PMC11065694:
# Amino acid sequences for entries named in this document (tags omitted). Residues count along the entry.
# UniProt P05106, residues 27-788: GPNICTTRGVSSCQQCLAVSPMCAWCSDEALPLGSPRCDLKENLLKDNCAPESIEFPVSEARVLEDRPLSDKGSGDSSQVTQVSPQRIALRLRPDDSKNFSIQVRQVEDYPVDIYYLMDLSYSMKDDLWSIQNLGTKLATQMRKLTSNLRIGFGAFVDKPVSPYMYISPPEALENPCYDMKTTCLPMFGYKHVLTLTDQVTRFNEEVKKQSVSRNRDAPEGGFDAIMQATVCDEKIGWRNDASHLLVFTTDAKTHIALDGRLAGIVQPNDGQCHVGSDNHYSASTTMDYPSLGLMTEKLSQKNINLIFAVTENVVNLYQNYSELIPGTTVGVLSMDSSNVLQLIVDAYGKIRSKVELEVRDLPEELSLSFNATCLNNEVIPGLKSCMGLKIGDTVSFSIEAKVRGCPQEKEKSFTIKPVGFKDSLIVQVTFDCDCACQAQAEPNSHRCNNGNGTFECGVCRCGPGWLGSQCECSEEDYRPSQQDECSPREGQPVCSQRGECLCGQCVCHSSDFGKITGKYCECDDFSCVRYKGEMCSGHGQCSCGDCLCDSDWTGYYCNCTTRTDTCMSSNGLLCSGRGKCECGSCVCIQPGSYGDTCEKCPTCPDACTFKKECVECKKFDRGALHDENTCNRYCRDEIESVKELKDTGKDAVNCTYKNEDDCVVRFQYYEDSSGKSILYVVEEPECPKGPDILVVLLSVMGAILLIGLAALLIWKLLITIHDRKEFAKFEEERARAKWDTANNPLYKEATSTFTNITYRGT
# Results are given in words; binding and its absence hold for the method and conditions named. Binding seen in cells or lysates may run through a third protein. Some results given as binding are weak or reduced against the parent protein; the word gives no strength.
# B1: CD103 (integrin αE) (protein, UniProt P38570 19-1179)
# chain: FNVDVARPWLTPKGGAPFVLSSLLHQDPSTNQTWLLVTSPRTKRTPGPLHRCSLVQDEILCHPVEHVPIPKGRHRGVTVVRSHHGVLICIQVLVRRPHSLSSELTGTCSLLGPDLRPQAQANFFDLENLLDPDARVDTGDCYSNKEGGGEDDVNTARQRRALEKEEEEDKEEEEDEEEEEAGTEIAIILDGSGSIDPPDFQRAKDFISNMMRNFYEKCFECNFALVQYGGVIQTEFDLRDSQDVMASLARVQNITQVGSVTKTASAMQHVLDSIFTSSHGSRRKASKVMVVLTDGGIFEDPLNLTTVINSPKMQGVERFAIGVGEEFKSARTARELNLIASDPDETHAFKVTNYMALDGLLSKLRYNIISMEGTVGDALHYQLAQIGFSAQILDERQVLLGAVGAFDWSGGALLYDTRSRRGRFLNQTAAAAADAEAAQYSYLGYAVAVLHKTCSLSYIAGAPRYKHHGAVFELQKEGREASFLPVLEGEQMGSYFGSELCPVDIDMDGSTDFLLVAAPFYHVHGEEGRVYVYRLSEQDGSFSLARILSGHPGFTNARFGFAMAAMGDLSQDKLTDVAIGAPLEGFGADDGASFGSVYIYNGHWDGLSASPSQRIRASTVAPGLQYFGMSMAGGFDISGDGLADITVGTLGQAVVFRSRPVVRLKVSMAFTPSALPIGFNGVVNVRLCFEISSVTTASESGLREALLNFTLDVDVGKQRRRLQCSDVRSCLGCLREWSSGSQLCEDLLLMPTEGELCEEDCFSNASVKVSYQLQTPEGQTDHPQPILDRYTEPFAIFQLPYEKACKNKLFCVAELQLATTVSQQELVVGLTKELTLNINLTNSGEDSYMTSMALNYPRNLQLKRMQKPPSPNIQCDDPQPVASVLIMNCRIGHPVLKRSSAHVSVVWQLEENAFPNRTADITVTVTNSNERRSLANETHTLQFRHGFVAVLSKPSIMYVNTGQGLSHHKEFLFHVHGENLFGAEYQLQICVPTKLRGLQVVAVKKLTRTQASTVCTWSQERACAYSSVQHVEEWHSVSCVIASDKENVTVAAEISWDHSEELLKDVTELQILGEISFNKSLYEGLNAENHRTKITVVFLKDEKYHSLPIIIKGSVGGLLVLIVILVILFKCGFFKRKYQQLNLESIRKAQLKSENLLEEEN
# Target: CD61-flag (integrin β3) (human) (UniProt P05106)
# Experiment: co-IP; anti-FLAG beads on pre-cleared lysates of integrin-transduced primary CD8+ T cells; Pierce IP Lysis Buffer (25 mM Tris pH 7.4, 150 mM NaCl, 1% Nonidet P-40, 1 mM EDTA, 5% glycerol); 4 °C overnight; eluted with 3X FLAG peptide; immunoblot with anti-CD103 and anti-FLAG
binder,measurement,value
B1,binding,binds
